Measured values as given in the supplement of paper PMC10849652.
This is one part of the list.

The chains behind the UniProt entries cited, without tags or fusion partners. Where a name states a change or a piece, a line headed by the entry shows the natural chain unless it says otherwise.
UniProt Q14232, whole entry, looked up: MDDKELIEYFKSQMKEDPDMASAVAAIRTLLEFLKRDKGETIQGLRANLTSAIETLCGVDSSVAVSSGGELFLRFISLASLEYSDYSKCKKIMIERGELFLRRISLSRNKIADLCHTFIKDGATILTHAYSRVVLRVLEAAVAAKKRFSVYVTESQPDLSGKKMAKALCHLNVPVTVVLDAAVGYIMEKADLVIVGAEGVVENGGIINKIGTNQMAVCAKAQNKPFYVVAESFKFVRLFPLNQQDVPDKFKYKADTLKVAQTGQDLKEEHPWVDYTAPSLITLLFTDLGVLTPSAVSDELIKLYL
UniProt Q5J8M3, whole entry, looked up: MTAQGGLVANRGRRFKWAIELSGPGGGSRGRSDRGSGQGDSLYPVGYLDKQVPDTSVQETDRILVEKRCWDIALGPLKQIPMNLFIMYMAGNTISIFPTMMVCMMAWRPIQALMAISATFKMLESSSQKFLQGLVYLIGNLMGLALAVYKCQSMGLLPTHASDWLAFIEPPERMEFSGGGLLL
UniProt P38919, whole entry, looked up: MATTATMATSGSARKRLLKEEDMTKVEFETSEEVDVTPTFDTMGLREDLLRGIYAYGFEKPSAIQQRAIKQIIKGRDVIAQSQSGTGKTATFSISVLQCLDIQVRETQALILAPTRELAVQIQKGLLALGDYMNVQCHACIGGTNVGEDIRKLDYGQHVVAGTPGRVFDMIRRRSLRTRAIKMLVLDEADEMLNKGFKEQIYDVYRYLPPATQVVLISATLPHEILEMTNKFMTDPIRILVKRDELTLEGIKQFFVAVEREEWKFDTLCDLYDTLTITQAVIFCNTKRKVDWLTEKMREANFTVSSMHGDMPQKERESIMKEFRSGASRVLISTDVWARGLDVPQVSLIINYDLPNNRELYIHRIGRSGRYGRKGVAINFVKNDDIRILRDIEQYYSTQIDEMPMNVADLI
UniProt Q96EB1: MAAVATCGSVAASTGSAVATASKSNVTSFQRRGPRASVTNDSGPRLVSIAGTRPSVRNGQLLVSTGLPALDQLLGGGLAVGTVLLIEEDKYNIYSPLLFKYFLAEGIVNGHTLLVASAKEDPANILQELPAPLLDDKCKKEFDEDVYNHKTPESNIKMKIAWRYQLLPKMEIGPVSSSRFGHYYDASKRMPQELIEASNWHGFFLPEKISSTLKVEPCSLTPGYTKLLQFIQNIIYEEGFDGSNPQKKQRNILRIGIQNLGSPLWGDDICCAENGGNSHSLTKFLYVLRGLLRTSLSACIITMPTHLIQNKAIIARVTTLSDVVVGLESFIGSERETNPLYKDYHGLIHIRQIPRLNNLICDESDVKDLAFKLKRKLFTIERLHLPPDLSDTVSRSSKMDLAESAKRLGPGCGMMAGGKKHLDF
UniProt Q9HC35: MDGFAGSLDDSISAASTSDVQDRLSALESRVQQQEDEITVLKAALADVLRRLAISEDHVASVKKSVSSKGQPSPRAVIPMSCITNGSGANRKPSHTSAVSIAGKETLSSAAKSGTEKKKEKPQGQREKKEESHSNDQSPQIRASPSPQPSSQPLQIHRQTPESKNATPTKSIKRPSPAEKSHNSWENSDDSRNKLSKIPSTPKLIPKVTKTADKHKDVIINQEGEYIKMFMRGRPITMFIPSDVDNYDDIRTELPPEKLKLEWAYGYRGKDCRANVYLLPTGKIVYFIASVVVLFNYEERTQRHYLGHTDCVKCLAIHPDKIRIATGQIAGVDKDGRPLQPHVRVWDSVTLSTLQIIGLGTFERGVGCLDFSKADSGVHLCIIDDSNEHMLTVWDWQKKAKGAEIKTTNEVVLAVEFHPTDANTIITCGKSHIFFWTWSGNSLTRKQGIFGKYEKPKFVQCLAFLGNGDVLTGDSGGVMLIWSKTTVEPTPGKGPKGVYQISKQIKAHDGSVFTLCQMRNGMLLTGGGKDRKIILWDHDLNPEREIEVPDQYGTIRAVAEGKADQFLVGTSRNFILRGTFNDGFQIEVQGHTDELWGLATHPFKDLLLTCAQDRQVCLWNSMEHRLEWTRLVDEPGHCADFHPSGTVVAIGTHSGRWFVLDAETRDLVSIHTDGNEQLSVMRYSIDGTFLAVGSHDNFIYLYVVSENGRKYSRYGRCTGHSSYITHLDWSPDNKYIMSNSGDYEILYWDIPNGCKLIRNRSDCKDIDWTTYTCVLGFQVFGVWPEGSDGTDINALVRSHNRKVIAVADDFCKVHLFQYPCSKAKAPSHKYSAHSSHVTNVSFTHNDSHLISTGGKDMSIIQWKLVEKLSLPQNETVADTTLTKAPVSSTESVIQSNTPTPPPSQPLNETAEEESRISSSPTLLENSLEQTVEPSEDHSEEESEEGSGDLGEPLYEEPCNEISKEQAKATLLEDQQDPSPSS
UniProt Q9BV81: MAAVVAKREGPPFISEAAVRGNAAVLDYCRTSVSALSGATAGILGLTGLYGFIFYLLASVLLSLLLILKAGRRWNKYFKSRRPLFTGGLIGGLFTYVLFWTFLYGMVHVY
UniProt Q9NPA0: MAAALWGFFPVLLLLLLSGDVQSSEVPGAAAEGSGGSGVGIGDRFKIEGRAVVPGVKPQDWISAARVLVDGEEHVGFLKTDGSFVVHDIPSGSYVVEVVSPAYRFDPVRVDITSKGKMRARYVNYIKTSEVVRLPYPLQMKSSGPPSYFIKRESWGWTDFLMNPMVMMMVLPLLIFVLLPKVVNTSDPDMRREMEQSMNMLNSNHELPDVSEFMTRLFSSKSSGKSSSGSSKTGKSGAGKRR
UniProt Q5NDL2: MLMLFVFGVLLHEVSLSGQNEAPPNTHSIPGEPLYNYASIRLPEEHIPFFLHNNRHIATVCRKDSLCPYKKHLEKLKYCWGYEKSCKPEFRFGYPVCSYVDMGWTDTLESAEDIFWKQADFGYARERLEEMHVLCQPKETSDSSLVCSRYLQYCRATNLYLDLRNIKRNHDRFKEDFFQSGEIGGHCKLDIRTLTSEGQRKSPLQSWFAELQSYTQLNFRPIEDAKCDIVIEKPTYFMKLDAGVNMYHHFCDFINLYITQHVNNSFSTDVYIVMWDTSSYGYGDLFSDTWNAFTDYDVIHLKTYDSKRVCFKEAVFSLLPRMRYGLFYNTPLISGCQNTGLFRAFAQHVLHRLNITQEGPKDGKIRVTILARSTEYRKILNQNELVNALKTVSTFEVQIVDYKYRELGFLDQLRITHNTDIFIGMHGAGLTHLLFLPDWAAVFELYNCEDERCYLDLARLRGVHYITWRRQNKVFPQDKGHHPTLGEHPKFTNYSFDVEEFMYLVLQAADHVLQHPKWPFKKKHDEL
UniProt P06733, whole entry, looked up: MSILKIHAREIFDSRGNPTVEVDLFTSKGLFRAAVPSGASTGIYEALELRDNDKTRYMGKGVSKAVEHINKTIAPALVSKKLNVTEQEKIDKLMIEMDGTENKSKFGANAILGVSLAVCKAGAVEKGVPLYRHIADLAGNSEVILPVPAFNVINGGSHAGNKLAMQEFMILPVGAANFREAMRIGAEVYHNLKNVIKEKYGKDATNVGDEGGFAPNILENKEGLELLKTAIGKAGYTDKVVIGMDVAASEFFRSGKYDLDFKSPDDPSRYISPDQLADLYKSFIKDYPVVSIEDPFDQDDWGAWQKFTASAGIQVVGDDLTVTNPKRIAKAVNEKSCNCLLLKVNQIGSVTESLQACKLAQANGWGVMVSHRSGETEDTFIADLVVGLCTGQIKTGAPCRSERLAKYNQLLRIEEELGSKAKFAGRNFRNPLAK
UniProt Q7L5Y1: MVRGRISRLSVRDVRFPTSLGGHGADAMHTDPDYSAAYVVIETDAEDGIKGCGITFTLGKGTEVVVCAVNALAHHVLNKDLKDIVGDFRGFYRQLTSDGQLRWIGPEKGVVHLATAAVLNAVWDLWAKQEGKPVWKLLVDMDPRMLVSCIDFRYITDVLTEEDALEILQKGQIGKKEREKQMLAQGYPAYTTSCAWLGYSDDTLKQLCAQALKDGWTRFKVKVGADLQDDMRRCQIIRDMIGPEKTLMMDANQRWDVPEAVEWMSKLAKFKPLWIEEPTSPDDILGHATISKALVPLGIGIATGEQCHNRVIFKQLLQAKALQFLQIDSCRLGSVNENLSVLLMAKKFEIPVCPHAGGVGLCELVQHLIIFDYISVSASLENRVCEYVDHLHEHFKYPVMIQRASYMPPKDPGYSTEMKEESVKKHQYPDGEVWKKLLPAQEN
UniProt O60841: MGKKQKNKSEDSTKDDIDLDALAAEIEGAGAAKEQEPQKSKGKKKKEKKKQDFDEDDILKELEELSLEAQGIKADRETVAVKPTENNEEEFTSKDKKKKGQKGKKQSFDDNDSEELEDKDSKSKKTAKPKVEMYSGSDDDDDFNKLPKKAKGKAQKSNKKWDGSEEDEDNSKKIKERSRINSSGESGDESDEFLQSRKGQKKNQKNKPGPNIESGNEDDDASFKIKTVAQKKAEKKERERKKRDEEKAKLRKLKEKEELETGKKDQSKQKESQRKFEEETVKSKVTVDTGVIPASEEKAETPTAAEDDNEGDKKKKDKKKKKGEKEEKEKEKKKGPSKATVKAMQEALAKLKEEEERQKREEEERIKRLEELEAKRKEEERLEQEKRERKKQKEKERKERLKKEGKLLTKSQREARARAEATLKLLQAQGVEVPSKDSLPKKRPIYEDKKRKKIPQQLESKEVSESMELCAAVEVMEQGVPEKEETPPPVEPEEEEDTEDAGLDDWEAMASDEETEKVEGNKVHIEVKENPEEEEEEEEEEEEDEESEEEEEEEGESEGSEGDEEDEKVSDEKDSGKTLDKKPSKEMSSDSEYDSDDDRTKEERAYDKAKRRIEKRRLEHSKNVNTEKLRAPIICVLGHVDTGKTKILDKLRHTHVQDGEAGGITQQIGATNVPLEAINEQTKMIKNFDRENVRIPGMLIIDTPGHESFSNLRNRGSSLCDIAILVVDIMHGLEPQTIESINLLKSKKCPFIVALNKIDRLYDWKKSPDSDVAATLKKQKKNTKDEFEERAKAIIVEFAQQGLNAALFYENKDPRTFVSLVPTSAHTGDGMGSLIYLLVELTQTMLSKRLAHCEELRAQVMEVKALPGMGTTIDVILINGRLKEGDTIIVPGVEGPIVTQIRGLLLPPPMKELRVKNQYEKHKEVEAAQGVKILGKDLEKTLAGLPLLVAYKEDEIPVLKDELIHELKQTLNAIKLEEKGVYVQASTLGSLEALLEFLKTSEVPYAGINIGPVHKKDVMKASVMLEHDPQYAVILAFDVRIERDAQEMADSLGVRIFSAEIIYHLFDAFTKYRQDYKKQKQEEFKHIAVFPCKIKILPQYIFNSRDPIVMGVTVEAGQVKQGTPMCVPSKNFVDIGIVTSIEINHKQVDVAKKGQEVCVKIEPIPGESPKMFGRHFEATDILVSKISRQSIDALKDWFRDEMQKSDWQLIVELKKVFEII
UniProt Q15029: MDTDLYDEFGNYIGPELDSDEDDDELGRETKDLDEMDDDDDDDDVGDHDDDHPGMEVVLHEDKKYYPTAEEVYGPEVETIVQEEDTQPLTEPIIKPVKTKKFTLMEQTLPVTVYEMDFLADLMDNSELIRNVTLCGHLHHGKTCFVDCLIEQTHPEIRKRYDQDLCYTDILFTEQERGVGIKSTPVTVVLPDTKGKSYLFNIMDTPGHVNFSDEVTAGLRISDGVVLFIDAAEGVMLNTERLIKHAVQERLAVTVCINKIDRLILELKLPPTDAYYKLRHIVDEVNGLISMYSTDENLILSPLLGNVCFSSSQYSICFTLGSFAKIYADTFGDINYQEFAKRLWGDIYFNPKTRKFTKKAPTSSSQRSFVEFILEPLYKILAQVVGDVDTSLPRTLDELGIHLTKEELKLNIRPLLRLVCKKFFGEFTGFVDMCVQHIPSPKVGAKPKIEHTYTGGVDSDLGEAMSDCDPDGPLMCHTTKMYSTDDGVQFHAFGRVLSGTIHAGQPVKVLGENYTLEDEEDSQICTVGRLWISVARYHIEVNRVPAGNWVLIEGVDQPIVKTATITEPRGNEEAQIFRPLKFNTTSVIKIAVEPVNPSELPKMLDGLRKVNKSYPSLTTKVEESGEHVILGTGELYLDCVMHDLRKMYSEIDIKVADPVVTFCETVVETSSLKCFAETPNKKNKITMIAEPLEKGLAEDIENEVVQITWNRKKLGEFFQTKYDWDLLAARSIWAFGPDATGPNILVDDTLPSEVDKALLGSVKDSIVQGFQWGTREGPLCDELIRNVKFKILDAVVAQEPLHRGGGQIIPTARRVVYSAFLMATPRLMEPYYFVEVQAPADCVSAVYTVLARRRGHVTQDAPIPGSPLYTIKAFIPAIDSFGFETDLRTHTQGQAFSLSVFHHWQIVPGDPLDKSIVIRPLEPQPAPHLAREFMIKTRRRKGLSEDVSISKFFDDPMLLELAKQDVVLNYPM
UniProt Q9BW60: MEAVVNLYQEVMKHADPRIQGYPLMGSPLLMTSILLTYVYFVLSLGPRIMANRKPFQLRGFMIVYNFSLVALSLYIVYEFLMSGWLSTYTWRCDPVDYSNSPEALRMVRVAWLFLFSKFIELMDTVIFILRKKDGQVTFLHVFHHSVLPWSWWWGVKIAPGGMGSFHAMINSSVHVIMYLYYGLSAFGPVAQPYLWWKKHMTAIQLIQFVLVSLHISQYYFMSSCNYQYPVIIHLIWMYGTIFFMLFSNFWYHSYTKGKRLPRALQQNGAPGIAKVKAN

Columns and labels:
Experiment in all cases: log2 fold change, soluble protein after heating vs DMSO (PISA); higher = thermal stabilisation; K562 cells, 10 uM, 30 min; active = over 0.2 and 3.5 SD of the protein, either way, in both replicates (recomputed)
[1] = compound: CC1=C(C=C(C=C1)NC(=O)C2=CC(=CC=C2)C(C)(C)C#N)NC3=CC4=C(C=C3)N=CN(C4=O)C
In short: (§1)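 Thermal stability values are relative to control samples and come from duplicates. They are expressed as log2 fold changes. For measurement, K562 cells (2×10^6 cells/mL) received 10 μM compound for 30 min, and aliquots were heated for 3 min over 48°C-58°C, pooled, and extracted at 4°C in PBS with 0.5% NP-40. Soluble protein, the supernatant after 21,000xg for 90 min, was quantified by TMTpro 16plex LC-MS/MS with equalised channel sums.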

[2] = compound: CC1=C(C=C(C=C1)NC(=O)C2=CC(=CC=C2)N(C)C)NC(=O)C3=CC=C(C=C3)O
In short: as §1

[3] = compound: CC1=CC=C(C=C1)SC2=C3C=C(SC3=CN=C2)C(=O)N
In short: as §1

[4] = compound: CC1=NC(=CC=C1)C2=C(N=C(N2)C(C)(C)C)C3=CC4=NC=CN=C4C=C3
In short: as §1

Nexturastat A = compound: CCCCN(Cc1ccc(C(=O)NO)cc1)C(=O)Nc1ccccc1 [Nexturastat A]
In short: as §1

vemurafenib = compound: CCCS(=O)(=O)Nc1ccc(F)c(C(=O)c2c[nH]c3ncc(-c4ccc(Cl)cc4)cc23)c1F [vemurafenib]
In short: as §1

[5] = compound: CCCS(=O)(=O)Nc1ccc(F)c(C(=O)c2c[nH]c3ncc(Cl)cc23)c1F
In short: as §1

[6] = compound: CCCc1cc(C)[nH]c(=O)c1CNC(=O)c1cc(-c2ccnc(N3CCN(C)CC3)c2)cc2c1cnn2C(C)C
In short: as §1

givinostat = compound: CCN(CC)Cc1ccc2cc(COC(=O)Nc3ccc(C(=O)NO)cc3)ccc2c1 [givinostat]
In short: as §1

barasertib = compound: CCN(CCCOc1ccc2c(Nc3cc(CC(=O)Nc4cccc(F)c4)[nH]n3)ncnc2c1)CCOP(=O)(O)O [barasertib]
In short: as §1

[7] = compound: CC[C@@H]1C(=O)N(C)c2cnc(Nc3ccc(C(=O)NC4CCN(C)CC4)cc3OC)nc2N1C1CCCC1
In short: as §1

volasertib = compound: CC[C@@H]1C(=O)N(C)c2cnc(Nc3ccc(C(=O)N[C@H]4CC[C@H](N5CCN(CC6CC6)CC5)CC4)cc3OC)nc2N1C(C)C [volasertib]
In short: as §1

[8] = compound: CC[C@H](C)N1C=C(C2=C(C=C(C=C21)C3=CN=C(C=C3)N4CCNCC4)C(=O)NCC5=C(C=C(NC5=O)C)C)C
In short: as §1

epoxomicin = compound: CC[C@H](C)[C@@H](C(=O)N[C@@H]([C@@H](C)O)C(=O)N[C@@H](CC(C)C)C(=O)[C@]1(CO1)C)NC(=O)[C@H]([C@@H](C)CC)N(C)C(=O)C [epoxomicin]
In short: as §1

[9] = compound: CCn1c(C(=O)N(C2CC2)C2CC2)cc2c3c(ncn3C)c(Nc3cc(C)n(C)n3)nc21
In short: as §1

[10] = compound: CCn1cc(-c2ccnc3[nH]c(-c4cccc(CN(C)C)c4)cc23)c(-c2ccc(NC(=O)N(C)C)cc2)n1
In short: as §1

[11] = compound: CN(C)CC(=O)Nc1ccc2[nH]c(=O)c3ccccc3c2c1
In short: as §1

rosiglitazone = compound: CN(CCOC1=CC=C(C=C1)C[C@H]2C(=O)NC(=O)S2)C3=CC=CC=N3 (racemic) [rosiglitazone]
In short: as §1

[12] = compound: CN1C2=C(C3=C1C(=O)N(N=C3)CC4=CC(=CC=C4)N)SC(=C2)S(=O)C
In short: as §1

[13] = compound: CN1CCC(CNc2ccc3ncc(-c4cccc(OC(F)(F)F)c4)n3n2)CC1
In short: as §1

Target	log2 fold change [1]	log2 fold change [2]	log2 fold change [3]	log2 fold change [4]	log2 fold change (Nexturastat A)	log2 fold change (vemurafenib)	log2 fold change [5]	log2 fold change [6]	log2 fold change (givinostat)	log2 fold change (barasertib)	log2 fold change [7]	log2 fold change (volasertib)	log2 fold change [8]	log2 fold change (epoxomicin)	log2 fold change [9]	log2 fold change [10]	log2 fold change [11]	log2 fold change (rosiglitazone)	log2 fold change [12]	log2 fold change [13]
EIF2B1 (UniProt Q14232)	inactive: 0.012	inactive: -0.012	inactive: 0.091	inactive: 0.021	inactive: -0.06	inactive: 0.02	inactive: 0.008	inactive: 0.027	inactive: -0.012	inactive: -0.015	inactive: 0.002	inactive: 0.026	inactive: 0	inactive: 0.044	inactive: 0.006	inactive: 0.003	inactive: 0.018	inactive: -0.008	inactive: -0.083	inactive: -0.022
EIF3M (UniProt Q7L2H7)	inactive: 0.056	inactive: -0.062	inactive: 0.029	inactive: 0.043	inactive: 0.057	inactive: 0.077	inactive: 0.07	inactive: 0.035	inactive: 0.026	inactive: 0.015	inactive: -0.065	inactive: -0.241	inactive: 0.058	inactive: 0.027	inactive: -0.021	inactive: -0.015	inactive: 0.03	inactive: 0.034	inactive: 0.027	inactive: -0.072
EMC4 (UniProt Q5J8M3)	inactive: 0.1	inactive: -0.023	inactive: -0.019	inactive: -0.021	inactive: 0.011	inactive: 0.072	inactive: 0.02	inactive: 0.016	inactive: -0.048	inactive: 0.059	inactive: -0.029	inactive: -0.032	inactive: -0.02	inactive: 0.128	inactive: 0.02	inactive: -0.024	inactive: 0.037	inactive: 0.036	inactive: -0.062	inactive: 0.055
EIF4A3 (UniProt P38919)	inactive: 0.01	inactive: -0.018	inactive: -0.033	inactive: 0.002	inactive: -0.05	inactive: 0.002	inactive: 0.002	inactive: -0.02	inactive: 0.019	inactive: 0.052	inactive: -0.012	inactive: 0.021	inactive: -0.013	inactive: 0.012	inactive: -0.02	inactive: -0.009	inactive: 0.019	inactive: 0.039	inactive: -0.035	inactive: 0.094
ELP4 isoform 3 (UniProt Q96EB1)	inactive: -0.045	inactive: 0.048	inactive: 0.005	inactive: 0.049	inactive: -0.035	inactive: 0.016	inactive: 0	inactive: -0.028	inactive: -0.007	inactive: -0.022	inactive: 0.055	inactive: -0.039	inactive: -0.037	inactive: 0.045	inactive: 0.008	inactive: -0.054	inactive: -0.023	inactive: -0.007	inactive: -0.047	inactive: 0.049
EML4 (UniProt Q9HC35)	inactive: -0.019	inactive: -0.016	inactive: 0.022	inactive: -0.076	inactive: 0.215	inactive: -0.034	inactive: 0.013	inactive: 0.074	inactive: 0.039	inactive: 0.023	inactive: 0.094	inactive: -0.031	inactive: 0.058	inactive: -0.023	inactive: -0.104	inactive: 0.022	inactive: -0.004	inactive: 0.052	inactive: 0.131	inactive: -0.004
EMC6 (UniProt Q9BV81)	inactive: -0.01	inactive: -0.025	inactive: 0.034	inactive: 0.001	inactive: 0.047	inactive: 0.018	inactive: 0.076	inactive: 0.001	inactive: -0.108	inactive: 0.049	inactive: 0.107	inactive: 0.017	inactive: 0.007	inactive: 0.092	inactive: -0.041	inactive: -0.055	inactive: 0.006	inactive: -0.004	inactive: -0.089	inactive: 0.058
EMC7 (UniProt Q9NPA0)	inactive: 0	inactive: -0.03	inactive: -0.017	inactive: -0.018	inactive: -0.014	inactive: -0.006	inactive: -0.012	inactive: -0.104	inactive: 0.028	inactive: 0.001	inactive: 0.05	inactive: 0	inactive: 0.033	inactive: 0.02	inactive: -0.005	inactive: -0.002	inactive: 0.004	inactive: 0.02	inactive: -0.037	inactive: -0.036
EOGT (UniProt Q5NDL2)	inactive: -0.043	inactive: -0.073	inactive: -0.088	inactive: -0.052	inactive: 0.033	inactive: -0.05	inactive: -0.098	inactive: -0.043	inactive: 0.02	inactive: -0.026	inactive: -0.004	inactive: 0.013	inactive: -0.037	inactive: 0.05		inactive: 0.001	inactive: 0		inactive: 0.021	inactive: 0.062
EIF5A isoform 2 (UniProt P63241)	inactive: 0.063	inactive: -0.105	inactive: 0.054	inactive: 0.062	inactive: -0.082	inactive: 0.06	inactive: 0.098	inactive: 0.046	inactive: 0.03	inactive: 0.036	inactive: -0.128	inactive: -0.177	inactive: 0.117	inactive: 0.041	inactive: -0.017	inactive: -0.055	inactive: 0.049	inactive: 0.039	inactive: -0.088	inactive: -0.14
ENO1 isoform 2 (UniProt P06733)	inactive: -0.22	inactive: -0.033	inactive: 0.024	inactive: -0.031	inactive: 0.307	inactive: -0.049	inactive: -0.012	inactive: -0.011	inactive: 0.088	inactive: 0	inactive: 0.017	inactive: 0.036	inactive: -0.11	inactive: 0.121	inactive: -0.047	inactive: -0.143	inactive: -0.022	inactive: 0.016	inactive: -0.027	inactive: -0.135
ENOSF1 (UniProt Q7L5Y1)	inactive: -0.031	inactive: -0.002	inactive: 0.02	inactive: -0.028	inactive: 0.06	inactive: -0.062	inactive: -0.032	inactive: -0.06	inactive: 0.051	inactive: 0.025	inactive: 0.046	inactive: 0.028	inactive: -0.068	inactive: 0.013	inactive: -0.066	inactive: -0.032	inactive: -0.031	inactive: 0.029	inactive: -0.045	inactive: 0.041
EIF5B (UniProt O60841)	inactive: 0.075	inactive: -0.007	inactive: 0.017	inactive: -0.021	inactive: 0.069	inactive: 0.032	inactive: 0.054	inactive: 0.108	inactive: 0.031	inactive: 0.006	inactive: 0.076	inactive: 0.042	inactive: 0.041	inactive: -0.044	inactive: 0.01	inactive: 0.02	inactive: -0.024	inactive: -0.007	inactive: -0.001	inactive: 0.074
EFTUD2 (UniProt Q15029)	inactive: -0.009	inactive: 0.015	inactive: 0.021	inactive: -0.018	inactive: -0.027	inactive: -0.015	inactive: 0.02	inactive: -0.024	inactive: -0.045	inactive: -0.044	inactive: 0.037	inactive: 0.047	inactive: -0.058	inactive: -0.039	inactive: 0.028	inactive: 0.032	inactive: -0.016	inactive: -0.02	inactive: -0.033	inactive: 0.125
ELOVL1 (UniProt Q9BW60)	inactive: -0.035	inactive: -0.065	inactive: 0.064	inactive: 0.044	inactive: 0.03	inactive: -0.032	inactive: 0.116	inactive: -0.063	inactive: 0.067	inactive: 0.028	inactive: -0.217	inactive: -0.127	inactive: -0.011	inactive: 0.003		inactive: 0.032	inactive: 0.116		inactive: -0.068	active: -0.691
ELP3 (UniProt Q9H9T3)	inactive: 0.006	inactive: -0.016	inactive: 0.042	inactive: 0.013	inactive: -0.009	inactive: -0.002	inactive: 0.007	inactive: -0.008	inactive: -0.03	inactive: 0.016	inactive: 0	inactive: -0.054	inactive: 0.032	inactive: 0.019	inactive: -0.035	inactive: -0.032	inactive: 0.013	inactive: -0.008	inactive: -0.005	inactive: -0.056

2 neighbouring entries out of the list so far:
Target	log2 fold change [1]	log2 fold change [2]	log2 fold change [3]	log2 fold change [4]	log2 fold change (Nexturastat A)	log2 fold change (vemurafenib)	log2 fold change [5]	log2 fold change [6]	log2 fold change (givinostat)	log2 fold change (barasertib)	log2 fold change [7]	log2 fold change (volasertib)	log2 fold change [8]	log2 fold change (epoxomicin)	log2 fold change [9]	log2 fold change [10]	log2 fold change [11]	log2 fold change (rosiglitazone)	log2 fold change [12]	log2 fold change [13]
ELP4 isoform 3 (UniProt Q96EB1)	inactive: -0.045	inactive: 0.048	inactive: 0.005	inactive: 0.049	inactive: -0.035	inactive: 0.016	inactive: 0	inactive: -0.028	inactive: -0.007	inactive: -0.022	inactive: 0.055	inactive: -0.039	inactive: -0.037	inactive: 0.045	inactive: 0.008	inactive: -0.054	inactive: -0.023	inactive: -0.007	inactive: -0.047	inactive: 0.049
EML4 (UniProt Q9HC35)	inactive: -0.019	inactive: -0.016	inactive: 0.022	inactive: -0.076	inactive: 0.215	inactive: -0.034	inactive: 0.013	inactive: 0.074	inactive: 0.039	inactive: 0.023	inactive: 0.094	inactive: -0.031	inactive: 0.058	inactive: -0.023	inactive: -0.104	inactive: 0.022	inactive: -0.004	inactive: 0.052	inactive: 0.131	inactive: -0.004
